Reference: PMC4551942
These are yes or no findings as the source states them, for the method shown. Some results given as binding are weak or reduced against the parent protein; the word gives no strength.

The chains behind the UniProt entries cited, without tags or fusion partners.
UniProt O95793: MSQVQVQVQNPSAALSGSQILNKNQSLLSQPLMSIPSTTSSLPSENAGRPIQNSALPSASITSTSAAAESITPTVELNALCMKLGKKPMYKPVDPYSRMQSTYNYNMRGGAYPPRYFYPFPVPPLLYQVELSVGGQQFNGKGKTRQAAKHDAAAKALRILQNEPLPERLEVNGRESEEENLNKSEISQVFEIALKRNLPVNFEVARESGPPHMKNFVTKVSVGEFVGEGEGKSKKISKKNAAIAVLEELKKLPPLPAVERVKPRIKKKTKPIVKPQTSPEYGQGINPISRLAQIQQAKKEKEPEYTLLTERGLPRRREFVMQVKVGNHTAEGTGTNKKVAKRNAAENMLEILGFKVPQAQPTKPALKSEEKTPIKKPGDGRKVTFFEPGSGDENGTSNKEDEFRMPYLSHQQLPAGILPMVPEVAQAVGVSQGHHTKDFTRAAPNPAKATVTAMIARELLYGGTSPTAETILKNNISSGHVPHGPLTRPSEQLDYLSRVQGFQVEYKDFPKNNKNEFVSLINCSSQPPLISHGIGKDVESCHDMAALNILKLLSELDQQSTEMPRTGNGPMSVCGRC

Target: Staufen1 fused with EYFP at the C-terminus (human) (UniProt O95793)
Assay: native gel or EMSA; EMSA; self-interaction seen at a high concentration range of Staufen1 (>100 nM); further conditions only in Supplementary Figure S2E

- binding: binds
Substance: Staufen1 fused with EYFP at the C-terminus (from UniProt O95793 1-577)
